# PubChem BioAssay AID1224830 – NIAID | 2016
# Screen: 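Regulators of TLR4 signalling towards TNF-alpha in macrophage-like cells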 (primary screen)
# System: human THP-1 monocytic leukaemia cells, TNF dual-luciferase reporter clone, PMA-differentiated to macrophage-like cells
# Reagents: siRNA pool against human genes, 50 nM
# Duration: LPS for 4 h, given about 3 days after siRNA transfection
# Conditions: bacterial LPS (TLR4 ligand), 10 ng/ml
# Detection: 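Ratio of firefly to renilla light, scaled to the plate median and expressed as a robust z-score per replicate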
# Scale: TNF reporter robust z-score: higher = stronger TNF reporter response to LPS
# Call rule: 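Each well counts as active if its z-score is over 2.8 or under -1.5; controls are left without a call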
# Shown is one part, drawn at random, of about 18,000 reagents tested. About 2,900 of all reagents (16%) were called active. 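Calls are made per well; low scores hint the gene aids the LPS response, high scores that it dampens it.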 Reagents against one gene are numbered here. Repeated entries: four replicate wells of each siRNA pool. Reagent sequences are not shown.
Target gene,reagent no.,TNF reporter robust z-score,activity call
NOL3 (GeneID 8996),1,-1.45,inactive
NOL3 (GeneID 8996),1,-0.56,inactive
NOL3 (GeneID 8996),1,-1.89,active
NOL3 (GeneID 8996),1,-1.23,inactive
CCDC178 (GeneID 374864),1,1.26,inactive
CCDC178 (GeneID 374864),1,0.38,inactive
CCDC178 (GeneID 374864),1,-1.13,inactive
CCDC178 (GeneID 374864),1,-0.82,inactive
ZDHHC1 (GeneID 29800),1,-1.29,inactive
ZDHHC1 (GeneID 29800),1,-1.57,active
ZDHHC1 (GeneID 29800),1,-1.96,active
ZDHHC1 (GeneID 29800),1,-0.8,inactive
VAMP5 (GeneID 10791),1,0.8,inactive
VAMP5 (GeneID 10791),1,1.04,inactive
VAMP5 (GeneID 10791),1,1.28,inactive
VAMP5 (GeneID 10791),1,1.36,inactive
MAG (GeneID 4099),1,1.62,inactive
MAG (GeneID 4099),1,0.25,inactive
MAG (GeneID 4099),1,0.65,inactive
MAG (GeneID 4099),1,1.07,inactive
PALM2AKAP2 (GeneID 445815),1,2.99,active
PALM2AKAP2 (GeneID 445815),1,3.06,active
PALM2AKAP2 (GeneID 445815),1,3.34,active
PALM2AKAP2 (GeneID 445815),1,3.78,active
PALM2AKAP2 (GeneID 445815),2,-0.04,inactive
PALM2AKAP2 (GeneID 445815),2,0.84,inactive
PALM2AKAP2 (GeneID 445815),2,0.25,inactive
PALM2AKAP2 (GeneID 445815),2,0.07,inactive
PALM2AKAP2 (GeneID 445815),3,-0.15,inactive
PALM2AKAP2 (GeneID 445815),3,-0.64,inactive
PALM2AKAP2 (GeneID 445815),3,-0.11,inactive
PALM2AKAP2 (GeneID 445815),3,0.03,inactive
ENTPD4 (GeneID 9583),1,-1.25,inactive
ENTPD4 (GeneID 9583),1,-1.14,inactive
ENTPD4 (GeneID 9583),1,-1.88,active
ENTPD4 (GeneID 9583),1,-1.4,inactive
KIR3DS1 (GeneID 3813),1,2.87,active
KIR3DS1 (GeneID 3813),1,1.08,inactive
KIR3DS1 (GeneID 3813),1,2.85,active
KIR3DS1 (GeneID 3813),1,1.29,inactive
PGBD2 (GeneID 267002),1,-1.02,inactive
PGBD2 (GeneID 267002),1,-0.41,inactive
PGBD2 (GeneID 267002),1,-0.71,inactive
DKKL1 (GeneID 27120),1,-1.58,active
DKKL1 (GeneID 27120),1,-1.42,inactive
DKKL1 (GeneID 27120),1,-1.61,active
DKKL1 (GeneID 27120),1,-0.77,inactive
PPP2R3B (GeneID 28227),1,-0.51,inactive
PPP2R3B (GeneID 28227),1,1.27,inactive
PPP2R3B (GeneID 28227),1,0.11,inactive
PPP2R3B (GeneID 28227),1,2.1,inactive
MPPE1 (GeneID 65258),1,-0.21,inactive
MPPE1 (GeneID 65258),1,-0.01,inactive
MPPE1 (GeneID 65258),1,-1.1,inactive
MPPE1 (GeneID 65258),1,-0.44,inactive
FLNA (GeneID 2316),1,0.31,inactive
FLNA (GeneID 2316),1,0.94,inactive
FLNA (GeneID 2316),1,0.46,inactive
FLNA (GeneID 2316),1,1.61,inactive
CCT8L1P (GeneID 155100),1,1.55,inactive
CCT8L1P (GeneID 155100),1,1.68,inactive
CCT8L1P (GeneID 155100),1,-0.23,inactive
CCT8L1P (GeneID 155100),1,-0.46,inactive
MCM10 (GeneID 55388),1,-2.2,active
MCM10 (GeneID 55388),1,-2.03,active
MCM10 (GeneID 55388),1,-0.39,inactive
MCM10 (GeneID 55388),1,-0.27,inactive
GBP5 (GeneID 115362),1,0.39,inactive
GBP5 (GeneID 115362),1,1.82,inactive
GBP5 (GeneID 115362),1,-0.08,inactive
GBP5 (GeneID 115362),1,2.33,inactive
MC4R (GeneID 4160),1,-0.69,inactive
MC4R (GeneID 4160),1,-0.6,inactive
MC4R (GeneID 4160),1,-0.83,inactive
MC4R (GeneID 4160),1,2.11,inactive
SPOP (GeneID 8405),1,-1.59,active
SPOP (GeneID 8405),1,-1.64,active
SPOP (GeneID 8405),1,-1.65,active
SPOP (GeneID 8405),1,-1.55,active
LCE1E (GeneID 353135),1,0.23,inactive
LCE1E (GeneID 353135),1,-0.62,inactive
LCE1E (GeneID 353135),1,-1.22,inactive
LCE1E (GeneID 353135),1,-0.86,inactive
ADAMTS20 (GeneID 80070),1,-1.05,inactive
ADAMTS20 (GeneID 80070),1,-0.92,inactive
ADAMTS20 (GeneID 80070),1,-0.31,inactive
ADAMTS20 (GeneID 80070),1,0.54,inactive
SAMD9L (GeneID 219285),1,-0.61,inactive
SAMD9L (GeneID 219285),1,1.77,inactive
SAMD9L (GeneID 219285),1,-0.32,inactive
SAMD9L (GeneID 219285),1,0.94,inactive
LINC00207 (GeneID 388910),1,0.65,inactive
LINC00207 (GeneID 388910),1,-1.02,inactive
LINC00207 (GeneID 388910),1,-0.81,inactive
LINC00207 (GeneID 388910),1,-0.86,inactive
LINC00207 (GeneID 388910),1,1.8,inactive
LINC00207 (GeneID 388910),1,1.16,inactive
LINC00207 (GeneID 388910),1,2.45,inactive
LINC00207 (GeneID 388910),1,3.28,active
TMEM156 (GeneID 80008),1,0.72,inactive
TMEM156 (GeneID 80008),1,0.61,inactive
TMEM156 (GeneID 80008),1,0.25,inactive
TMEM156 (GeneID 80008),1,-0.6,inactive
NKAIN4 (GeneID 128414),1,1.34,inactive
NKAIN4 (GeneID 128414),1,2.56,inactive
NKAIN4 (GeneID 128414),1,0.89,inactive
NKAIN4 (GeneID 128414),1,2.82,active
CXCR1 (GeneID 3577),1,1.21,inactive
CXCR1 (GeneID 3577),1,1.37,inactive
CXCR1 (GeneID 3577),1,2.21,inactive
CXCR1 (GeneID 3577),1,2.1,inactive
